Results: PMC7905918, “20E-mediated regulation of BmKr-h1 by BmKRP promotes oocyte maturation”

Molecular target: T1, BmKRP (endogenous) (Bombyx mori (BmN cells)) (UniProt A0A8R1WHU4)
T1 sequence (looked up): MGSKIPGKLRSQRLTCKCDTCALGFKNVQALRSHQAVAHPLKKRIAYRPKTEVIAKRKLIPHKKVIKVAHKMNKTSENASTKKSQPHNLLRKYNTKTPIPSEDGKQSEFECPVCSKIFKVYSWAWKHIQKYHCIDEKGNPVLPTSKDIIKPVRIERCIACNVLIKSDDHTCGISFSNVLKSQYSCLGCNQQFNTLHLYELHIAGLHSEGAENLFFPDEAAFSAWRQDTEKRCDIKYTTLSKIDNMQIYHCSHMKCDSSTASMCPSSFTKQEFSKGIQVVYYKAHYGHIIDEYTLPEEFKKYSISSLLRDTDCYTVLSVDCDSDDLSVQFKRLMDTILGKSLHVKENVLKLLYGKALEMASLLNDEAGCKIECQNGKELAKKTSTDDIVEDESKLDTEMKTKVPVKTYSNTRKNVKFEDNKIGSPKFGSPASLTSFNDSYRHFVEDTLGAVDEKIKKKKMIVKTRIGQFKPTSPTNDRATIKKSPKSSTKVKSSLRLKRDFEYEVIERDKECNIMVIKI
Experiment: pull-down
Details: pull-down: 10 mM HEPES pH 7.6, 100 mM K-glutamate, 80 mM KCl, 10 mM Mg acetate, 4 C, protein in an extract, residues 1-518, label: biotin

| Sequence | binding result (LC-MS/MS identification) | binding result (band absent with mutant probe) |
| --- | --- | --- |
| TTATTAAAACATCCGAAAACGCAATAATCATT (double strand) [pull-down WT CRE probe] | binds | – |
| GGCGGCCCACATCCGAAAACGACCGCCGACGG (double strand) [pull-down mutant CRE probe] | – | no binding |

Results from cells or extracts need not show a direct contact. No signal at the amounts used counts as a negative. At least one verdict rests on a figure or table, not on a statement of the authors. Tags and fusion partners may be left off the protein sequences shown. For at least one entry, the source does not settle the construct or the ends of the probe.
